Test results published in patent publication US7160914B2, “Compounds that exhibit specific molecular recognition of mixed nucleic acid sequences and bind in the DNA minor groove as a dimer” (The University of North Carolina at Chapel Hill, priority 1999, dated 2007).

System: oligo1 (AATT sequence hairpin)
Details: oligo1, SPR

SMILES	binding stoichiometry at saturation (compound per duplex)
N=C(N)c1ccc(-c2ccc(-c3nc4ccc(C(=N)N)cc4[nH]3)o2)cc1 [DB293]	single molecule
N=C(N)c1ccc2nc(-c3ccc(-c4nc5ccc(C(=N)N)cc5[nH]4)o3)[nH]c2c1 [DB270, reference compound]	single molecule
